Library screen at single concentrations

Chains of the proteins cited; added tags and fusions are not shown. Residues count along the entry.
UniProt P9WPC5, whole entry: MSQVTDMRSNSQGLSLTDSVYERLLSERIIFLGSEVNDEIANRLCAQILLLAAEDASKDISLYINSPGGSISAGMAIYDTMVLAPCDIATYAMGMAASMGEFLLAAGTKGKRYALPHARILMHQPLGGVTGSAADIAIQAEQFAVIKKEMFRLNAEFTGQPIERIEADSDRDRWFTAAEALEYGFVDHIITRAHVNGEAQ
UniProt P9WPC3, whole entry partner: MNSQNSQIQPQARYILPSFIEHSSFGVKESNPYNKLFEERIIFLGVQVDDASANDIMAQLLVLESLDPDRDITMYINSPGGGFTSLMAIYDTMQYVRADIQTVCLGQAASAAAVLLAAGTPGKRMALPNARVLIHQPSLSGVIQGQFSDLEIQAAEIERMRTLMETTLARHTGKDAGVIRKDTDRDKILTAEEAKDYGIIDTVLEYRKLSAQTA
UniProt A4I591, 1-473: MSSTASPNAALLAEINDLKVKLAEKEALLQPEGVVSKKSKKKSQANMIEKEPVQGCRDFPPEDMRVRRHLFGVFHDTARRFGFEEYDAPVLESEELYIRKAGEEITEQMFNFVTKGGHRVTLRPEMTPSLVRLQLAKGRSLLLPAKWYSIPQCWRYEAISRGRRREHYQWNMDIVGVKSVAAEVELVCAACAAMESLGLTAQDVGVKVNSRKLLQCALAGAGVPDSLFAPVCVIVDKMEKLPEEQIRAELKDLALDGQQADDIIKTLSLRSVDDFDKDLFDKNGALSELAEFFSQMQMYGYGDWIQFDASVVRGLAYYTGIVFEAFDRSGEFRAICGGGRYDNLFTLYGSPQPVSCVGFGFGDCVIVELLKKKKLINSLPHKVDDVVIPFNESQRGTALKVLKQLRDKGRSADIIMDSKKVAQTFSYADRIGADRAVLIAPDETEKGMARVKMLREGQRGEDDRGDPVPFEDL

The values are deposited in ChEMBL (CHEMBL3988442, “University of Dundee, Small-Polar-MMV Screening Library” (2021)).

ClpP1P2: 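ClpP1P2, Mycobacterium tuberculosis (UniProt P9WPC5 and UniProt P9WPC3). Protease assay of ClpP1P2, read by the AMC dye that it sets free. Compounds at 50 µM. Higher reads as stronger inhibition, judged from the few compounds that gave an IC50. Most other retested compounds had strongly negative values. Size under these conditions: about 69,000 compounds, about 10 of them at 50% or above in at least one test.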
LiHisRS: 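Enzyme assay of histidyl-tRNA synthetase; the read-out is not stated. Target: Histidine-tRNA ligase, Leishmania infantum (UniProt A4I591). Tested at 30 µM. Direction is inferred from retests: higher values go with stronger inhibition. The assay is labelled LdHisRS but filed under L. infantum. About 69,000 compounds were tested under these conditions; 0.6% (about 410) showed 50% or more at least once.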

The filed quantity is “Percent Effect” (%).
The record does not define 0% and 100%; most values in the screen are far below 50% and negative numbers occur (in some assays of this library far below -100).
The compounds are a random part of those screened.

* CCS(=O)(=O)N1C[C@@H](O)[C@H](Oc2cccc(F)c2)C1 : ClpP1P2: -12.64%; LiHisRS: 12.86%
* Cc1ccc(N2CCC3(CCN(C(=O)c4ccsc4)CC3)CC2)nn1 : ClpP1P2: 0.2889%; LiHisRS: 9.735%
* CC(C)=CCCC(C)CN1CCC(n2cc(C(=O)NCCO)nn2)CC1 (stereo not given) : ClpP1P2: -1.055%; LiHisRS: -3.03%
* CC(C(=O)N(C)C)N1CCc2onc(-c3cccc(F)c3)c2C1 (stereo not given) : ClpP1P2: -20.06%; LiHisRS: 26.88%
* Cc1nc([C@H]2C[C@H]3CN(C(=O)c4cc(C)c(C)s4)CC[C@@H]3O2)no1 : ClpP1P2: -6.723%; LiHisRS: 20.55%
* Cc1cc(N2CCCC(N(C)C)C2)n2nc(C)cc2n1 (stereo not given) : ClpP1P2: -2.611%; LiHisRS: 17.78%
* CS(=O)(=O)N1CCCC(C(=O)Nc2cnn(Cc3ccc(F)cc3)c2)C1 (stereo not given) : ClpP1P2: 2.466%; LiHisRS: 12.37%
* COCc1nc(Cn2ncn3cccc3c2=O)no1 : ClpP1P2: -4.231%; LiHisRS: 19.4%
* Cc1noc(C)c1CN(C)C(=O)c1ccc(C(F)(F)F)nc1 : ClpP1P2: -13.49%; LiHisRS: 13.79%
* Cn1ccc(C(=O)NC2CCC23CCN(C(=O)c2ccncc2)CC3)c1 (stereo not given) : ClpP1P2: -2.647%; LiHisRS: 11.43%
* CC(C)c1cc(CN2CCC(N)CC2)no1 : ClpP1P2: -5.312%; LiHisRS: 8.247%
* COc1cccc(N2CCN(C(=O)CN(C)c3cnccn3)CC2)c1 : ClpP1P2: -22.81%; LiHisRS: 14.68%
* CC(C)(C)OC(=O)N1CCCN(Cc2ccon2)c2ccccc21 : ClpP1P2: 1.775%; LiHisRS: -5%
* CC(=O)NCc1nnc2n1CCN(c1nc(C)nc3sccc13)CC2 : ClpP1P2: 3.11%; LiHisRS: 7.071%
* CCn1nc(C)c2nnn(CC(=O)Nc3cccc(Cl)c3)c(=O)c21 : ClpP1P2: 7.314%; LiHisRS: 17.48%
* O=C(c1coc(COc2cccc(F)c2)n1)N1CC[C@H](O)[C@@H](O)C1 : ClpP1P2: -4.067%; LiHisRS: 25%
* CCOc1nnc(CN(C)C2CCCN(c3ccc(C)nn3)C2)s1 (stereo not given) : ClpP1P2: 20.33%; LiHisRS: 26.97%
* COCC(=O)N1CCN(Cn2nc(C)c(Br)c2C)CC1 : ClpP1P2: -2.265%; LiHisRS: 10.2%
* CC(C)NC(=O)[C@@H]1CC[C@@H]2[C@@H](CCN2Cc2cn(C)c3ccccc23)O1 : ClpP1P2: 8.928%; LiHisRS: 18.42%
* CC1(C)Cc2c(cnn2-c2ccccc2)C(NC2CCSCC2)C1 (stereo not given) : ClpP1P2: -9.561%; LiHisRS: 5.263%
* CN(Cc1cc(Br)cn1C)C(=O)Cc1cccnc1 : ClpP1P2: -4.678%; LiHisRS: 15.69%
* Cc1cc(-c2c[nH]nc2C2CCCCN2C(=O)c2ccccc2)on1 (stereo not given) : ClpP1P2: -3.095%; LiHisRS: 5.674%
* O=C(N1CCOCC1)n1cnc2ccccc21 : ClpP1P2: -5.882%; LiHisRS: 2.597%
* Cc1ccnn1CC(=O)Nc1cc(-c2ccncc2)[nH]n1 : ClpP1P2: 5.298%; LiHisRS: 8.824%
* COC(=O)c1ccc(C2CC(=O)Oc3cc(C)[nH]c(=O)c32)cc1 (stereo not given) : ClpP1P2: 5.179%; LiHisRS: 5.825%
* Cc1cn2c(n1)CCC(NC(=O)COCCOc1ccccc1)C2 (stereo not given) : ClpP1P2: 1.624%; LiHisRS: -16.96%
* Cn1nc(C2CCCNC2)c2c(C(=O)NC3CC3)cc(C3CC3)nc21 (stereo not given) : ClpP1P2: 3.998%; LiHisRS: 12.41%
* CC(=O)N1CCN(C)CC(COCc2ccccc2)C1 (stereo not given) : ClpP1P2: 3.95%; LiHisRS: 11.11%
* Cc1noc(C)c1CNC(=O)N1CCC(Cc2cnn(C)c2)C1 (stereo not given) : ClpP1P2: -35.44%; LiHisRS: 16.51%
* CCOCc1ccc(NC(=O)N2CCOC3(CCC3)C2)cc1 : ClpP1P2: -2.906%; LiHisRS: 1.036%
* O=C(CN1C=Nc2ccccc2S1(=O)=O)NCC1CC1 : ClpP1P2: -13.02%; LiHisRS: 9.649%

Once more, the final 3:

| SMILES | ClpP1P2 | LiHisRS |
|---|---|---|
| `Cc1noc(C)c1CNC(=O)N1CCC(Cc2cnn(C)c2)C1` (stereo not given) | -35.44% | 16.51% |
| `CCOCc1ccc(NC(=O)N2CCOC3(CCC3)C2)cc1` | -2.906% | 1.036% |
| `O=C(CN1C=Nc2ccccc2S1(=O)=O)NCC1CC1` | -13.02% | 9.649% |